Data on 79 compounds can be found in publication PMC12040169 (PLOS Biology, 2025).

This is one part of the list.

This assay has as its system T1, CTL2-GFP (C. trachomatis L2/434/Bu, GFP-expressing).
T1 construct: L2/434/Bu, GFP-expressing
Also on record: species or system HeLa; Intracellular C. trachomatis growth in HeLa cells, bulk GFP fluorescence relative to DMSO. The note with it: bulk GFP, single well; 28.5 h, 10 µM; inhibitor.
`COc1ccc(CNC(=O)CN2C(=O)[C@@H]3CCCN3C(=O)c3ccccc32)cc1` [CBK286322]: the “% of control remaining” value is 114.961%.

Take `Cc1cc(CNS(=O)(=O)c2c(C)noc2C)no1` [CBK062261]: the “% of control remaining” value is recorded as 108.766%.

Turning to `O=C(NC1CCN(CC(F)(F)F)C1=O)c1cc(Cl)ccn1` (stereo not shown) [CBK305223], the “% of control remaining” value is 132.033%.

As for `COc1ccc2c(c1)C1(CC(=O)N(Cc3ccc(OC)c(OC)c3)C1=O)C(=O)N2C` (stereo not shown) [CBK075157], the “% of control remaining” value worked out at 95.582%.

Consider `Nc1cc(S(=O)(=O)C(F)(F)F)ccc1C(=O)O` [CBK286646], for which the “% of control remaining” value was 126.502%.

As to `Cc1cnn(C2CCN(C(=O)CC3OCCc4ccccc43)CC2)c1` (stereo not shown) [CBK304186], the “% of control remaining” value was found to be 115.493%.

Regarding `N#CC1=C(SCC(=O)Nc2cccc3ccccc23)NC(=O)CC1c1ccco1` (stereo not shown) [CBK265793], the “% of control remaining” value was 107.894%.

On to `Cc1ccc(OCC(O)Cn2c(=N)n(CCN3CCCCC3)c3ccccc32)cc1` (stereo not shown) [CBK266375C], for which the “% of control remaining” value turned out to be 187.087%.

Turning to `CCS(=O)(=O)Nc1ccc(C(=O)N2CCN(c3ccccc3)CC2)cc1` [CBK304345], the “% of control remaining” value is listed as 127.504%.

With `Cc1cc(OCC(=O)NN2CCN(C)CC2)ccc1[N+](=O)[O-]` [CBK268136], the “% of control remaining” value is 104.969%.

As for `CCOC(=O)Cn1ncc2c3sc(C)cc3n(CC)c2c1=O` [CBK284185], the “% of control remaining” value came out at 101.28%.

With `O=C(CCC1CCCCC1)N1CCC(c2n[nH]cc2C(=O)N2CCc3ccccc3C2)CC1` [CBK286271], the “% of control remaining” value is given as 130.714%.

Regarding `CCCn1cc(NC(=O)NC(CC)(CO)c2ccccc2)ccc1=O` (stereo not shown) [CBK305060], the “% of control remaining” value amounted to 123.881%.

For `CC(=O)c1ccc(-c2nc(NC(=O)c3cccs3)cnc2-c2ccc(F)cc2)s1` [CBK037558], the “% of control remaining” value stood at 145.481%.

On to `CN(C)S(=O)(=O)c1ccc(C(=O)C2=C(O)C(=O)N(Cc3cccnc3)C2c2ccccc2)cc1` (stereo not shown) [CBK264667], for which the “% of control remaining” value was found to be 95.6972%.

`O=C(O)/C=C\C(=O)Nc1ccc(OCC(=O)O)cc1` [CBK264449]: the “% of control remaining” value came out at 94.2439%.

Regarding `CC1CCCC(N2CCN(Cc3ccccn3)CC2)C1` (stereo not shown) [CBK263450], the “% of control remaining” value came to 100%.

For `O=C(COc1ccc(Cl)cc1Cl)Nc1cccc(NC(=O)c2ccccc2Cl)c1` [CBK264726], the “% of control remaining” value came to 100%.

In the case of `O=C(Cc1cccc2ccccc12)NC(=S)Nc1cccc(C(=O)O)c1` [CBK267471], the “% of control remaining” value is reported as 159.441%.

Consider `COC(=O)CSc1nnc(-c2cc(Cl)ccc2OC)[nH]1` [CBK270248], for which the “% of control remaining” value came out at 122.021%.

With `O=[N+]([O-])c1ccc(O)c(/C=N/C(CO)(CO)CO)c1` [CBK261835], the “% of control remaining” value is listed as 99.9065%.

With `O=C(CCN1C(=O)/C(=C\C=C\c2ccccc2)SC1=S)Nc1cccc(C(=O)O)c1` [CBK264798], the “% of control remaining” value stood at 118.236%.

As to `COc1ccccc1N1CCN(CC(=O)NC2CC3CCC2C3)CC1` (stereo not shown) [CBK269162], the “% of control remaining” value worked out at 136.602%.

Regarding `CC(C)Nc1nc(Cl)nc(Nc2ccc(I)cc2)n1` [CBK027685], the “% of control remaining” value is on record as 118.384%.

Regarding `CC(C)Oc1ncc(C(=O)N(CCC#N)Cc2ccco2)cc1Cl` [CBK304908], the “% of control remaining” value was 119.739%.

Take `COc1ccc(S(=O)(=O)N2CCCC(C(=O)NCc3ccc4c(c3)OCO4)C2)cc1Cl` (stereo not shown) [CBK268230]: the “% of control remaining” value is reported as 114.777%.

Take `COc1ccc(-c2ccc(C(=O)N(C)C)c(N3CCN(C(=O)c4ccco4)CC3)n2)cc1` [CBK106020]: the “% of control remaining” value is on record as 94.483%.

With `Cc1csc(Sc2nc3ccccc3nc2N2CCCC2)n1` [CBK093788], the “% of control remaining” value is 125.803%.

As to `CCOC(=O)c1cnc(SC)nc1NCCc1c[nH]c2cc(OC)ccc12` [CBK092317], the “% of control remaining” value is 126.946%.

Regarding `Cc1cc(S(=O)(=O)N2CCCC2)ccc1OCC(=O)NCc1ccccn1` [CBK270027], the “% of control remaining” value was 93.8924%.

On to `Cc1ccc2n1CCN(C(=O)c1cccc(-n3cnnc3)c1)C2C(C)C` (stereo not shown) [CBK282444], for which the “% of control remaining” value is recorded as 120.733%.

For `Cc1ccc(S(=O)(=O)N(CC(=O)NC2CC3CCC2C3)c2cc(Cl)cc(Cl)c2)cc1` (stereo not shown) [CBK263995], the “% of control remaining” value stood at 116.451%.

Turning to `COc1ccc(C(=O)N2CCC(N(C)Cc3ccc(-c4ccc(S(C)(=O)=O)cc4)nc3)CC2)cc1Cl` [CBK165991T], the “% of control remaining” value was 120.182%.

On to `Cc1cc(C)cc(NC(=O)C(Cc2ccccc2)C(=O)Nc2cc(C)cc(C)c2)c1` [CBK266165], for which the “% of control remaining” value worked out at 112.097%.

In the case of `O=C(O)c1ccccc1NC1SC(=O)N(c2ccccc2)C1=O` (stereo not shown) [CBK261078], the “% of control remaining” value is given as 96.1455%.

Consider `COc1ccccc1-c1ccc(NC(=O)CCc2nc3ccccc3[nH]2)cc1` [CBK285651], for which the “% of control remaining” value was 127.377%.

On to `COc1ccc(/C=N/NC(=O)c2ccc(O)cc2O)cc1COc1cc(C)c(Cl)c(C)c1` [CBK263000], for which the “% of control remaining” value is recorded as 141.799%.

Regarding `N#Cc1nc(COc2cccc(Cl)c2)oc1NCc1ccncc1` [CBK266447], the “% of control remaining” value was found to be 167.335%.

Regarding `CC(C)(C)C(=O)NCCN1CCC(O)(c2ccc(F)cc2)CC1` [CBK283262], the “% of control remaining” value is listed as 109.723%.

Regarding `CC(C)NC(=O)N1CCCC1c1nc(-c2ccc(Cl)cc2)c2ccccn12` (stereo not shown) [CBK046947], the “% of control remaining” value was 113.113%.

Turning to `O=C(NC1CCN(c2nc3cccnc3s2)CC1)c1ccsc1` [CBK304342], the “% of control remaining” value came out at 115.998%.

As to `CCOC(=O)CN1CCC(Oc2cncc(OCCN3CCOCC3)n2)C1` (stereo not shown) [CBK084491], the “% of control remaining” value is reported as 99.7259%.

For the compound `Cc1cnc2c(Cl)c(C(=O)NCC3(CN4CCOCC4)CC3)nn2c1` [CBK306918], the “% of control remaining” value was found to be 158.617%.

As for `CN1CCCN(c2ccc(NS(=O)(=O)c3ccc(F)cc3F)c3ccccc23)CC1` [CBK001499C], the “% of control remaining” value was 31.3237%.

Turning to `CCCc1c(C(=O)N2CCN(c3cnccn3)CC2)cnn1C` [CBK305962], the “% of control remaining” value was 82.0095%.

Regarding `COc1ccc(F)cc1-c1cccc(CC2(C(=O)NC3CCCCC3)CCOCC2)c1` [CBK285541], the “% of control remaining” value stood at 98.4977%.

As to `O=C(NCCCc1ccccn1)c1cc2ccc(F)cc2[nH]1` [CBK283211], the “% of control remaining” value worked out at 107.402%.

Regarding `Cc1ccccc1-c1nnc(NC(=O)c2ccc(N3C(=O)CCC3=O)cc2)s1` [CBK287332], the “% of control remaining” value amounted to 135.007%.

Take `Cc1nc(Oc2ccccc2)c2c3c(sc2n1)CCCC3` [CBK131919]: the “% of control remaining” value is 136.758%.

Turning to `COc1cc(C)c2c(N)c(C(C)=O)sc2n1` [CBK115336], the “% of control remaining” value is on record as 111.805%.

For the compound `CCOc1ccc2[nH]c(C(=O)NC3CCCOC3)cc2c1` (stereo not shown) [CBK283114], the “% of control remaining” value came out at 127.271%.

As for `CCN1CC2(CCC1=O)CCN(Cc1nncn1C(C)C)CC2` [CBK307460], the “% of control remaining” value is on record as 100.84%.

Turning to `O=C(CSc1nnc(-c2cccc(F)c2)o1)c1ccccc1` [CBK068764], the “% of control remaining” value stood at 104.295%.

Take `Cc1ccc(S(=O)(=O)NCCSc2nnc(Nc3ccccc3)s2)cc1` [CBK266345]: the “% of control remaining” value is 127.257%.

Take `CC(C)Oc1ncc(C(=O)Nc2ccc(OCCC(N)=O)cc2)cc1Cl` [CBK305750]: the “% of control remaining” value amounted to 129.117%.

Take `CC(C)N(C(=O)CN1C(=O)N2CCN=C2c2ccccc21)C(C)C` [CBK284005]: the “% of control remaining” value is reported as 147.146%.

For the compound `Cc1c(C(=O)NCc2ccncc2)nnn1-c1cccc(C(F)(F)F)c1` [CBK107396], the “% of control remaining” value was 109.564%.

On to `C[C@@H]1CN2CCCC2CN1Cc1ccc2ncccc2c1` (stereo partly shown) [CBK284555], for which the “% of control remaining” value is reported as 87.6094%.

Take `CCc1nnc(NS(=O)(=O)c2ccc(N/C=C3\C(=O)N(c4ccc(C)cc4)N=C3C)cc2)s1` [CBK262395]: the “% of control remaining” value worked out at 10.0457%.

As to `O=C(Nc1ccc(Cl)cc1C(=O)O)c1ccccc1` [CBK269993], the “% of control remaining” value is listed as 161.679%.

With `Cc1cc(COC(=O)NCc2ccncc2)cc(C)n1` [CBK200136], the “% of control remaining” value is given as 91.9917%.

With `CC1(C)CC(N(Cc2ccncc2)Cc2ccoc2)CC(C)(C)N1` [CBK283269], the “% of control remaining” value is listed as 106.093%.

For the compound `CCOC(=O)C(CNC(=O)CNC(=O)c1ccoc1)Cc1ccccc1` (stereo not shown) [CBK305971], the “% of control remaining” value turned out to be 102.238%.

As for `Cc1ccc(NC(=O)c2ccc3nccnc3c2)c(C)n1` [CBK200219], the “% of control remaining” value came out at 108.745%.

For the compound `COc1ccccc1NS(=O)(=O)c1ccc(N2CCN3CCCC3C2)c(N)c1` (stereo not shown) [CBK001266], the “% of control remaining” value was determined as 125.893%.

Regarding `CN1CCOc2ccccc2C(=O)NC/C=C/CC2(CCCN(Cc3cc[nH]n3)C2)C1=O` (stereo not shown) [CBK292175], the “% of control remaining” value stood at 130.865%.

For the compound `O=c1[nH]cc(CN2CCCN(S(=O)(=O)c3ccc(C(F)(F)F)cc3Cl)CC2)c(=O)[nH]1` [CBK062975], the “% of control remaining” value is 85.2529%.

In the case of `CN(C)c1ccc(/C=N/NC(=O)CCn2c3ccccc3c3cc(I)ccc32)cc1` [CBK262902], the “% of control remaining” value stood at 122.311%.

In the case of `CC(NS(=O)(=O)c1ccc(F)cc1)C(=O)Nc1ccc(C(N)=O)cc1` (stereo not shown) [CBK267658], the “% of control remaining” value came out at 72.1933%.

Consider `CN(C)CCN(C)C(=O)c1cc(Br)cnc1N1CCN(C(=O)c2ccco2)CC1` [CBK076514], for which the “% of control remaining” value was determined as 113.113%.

Consider `Cc1noc(C)c1S(=O)(=O)Nc1nnn[nH]1` [CBK062378], for which the “% of control remaining” value stood at 80.6512%.

Regarding `CC(C)CC(=O)Nc1ccc2nc(SCC(=O)O)sc2c1` [CBK299801], the “% of control remaining” value was 127.7%.

Take `CCc1c(C)sc2ncn(C3CCNCC3)c(=O)c12` [CBK282972]: the “% of control remaining” value worked out at 114.051%.

As for `COc1ccc(OC)c(NC(=O)Cn2cc(C(C)=O)c3ccccc32)c1` [CBK268661], the “% of control remaining” value came to 132.573%.

As to `COc1nccnc1OC1CCN(CCc2ccc3ccccc3c2)CC1` [CBK084264], the “% of control remaining” value came out at 110.215%.

Turning to `CCOC(=O)[C@H]1CC[C@]2(CC1)CNC(=O)c1ccccc1O2` [CBK284893], the “% of control remaining” value was found to be 125.93%.

Regarding `Cc1cc(C)c(-n2nnnc2SCc2ccc(F)cc2)c(C)c1` [CBK100994], the “% of control remaining” value was 76.0909%.

As to `Nc1c(C(=O)O)nnn1Cc1ccccc1` [CBK263796], the “% of control remaining” value was determined as 100%.

`Cc1c(Cl)cccc1CNC(=O)CC1SC(NCC2CCCCC2)=NC1=O` (stereo not shown) [CBK067017]: the “% of control remaining” value is 101.801%.
